Assay results reported in the supplement of paper PMC6078165.
Values are relative to the signal before dosing, not to a vehicle control; the signal also falls without drug.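 Labels refer to human fibroblasts, largely primary: uterine (C12385, HUF), lung (H6013), bone (Hs27A), adrenal (HADF), skin (WS1), plus mammary HMF and breast cancer-associated Hs343T. Cancer lines are basal-like or mesenchymal-like triple-negative breast cancer. The paper counts as hits responses shifting over 3x the replicate standard deviation. The tissue of the other fibroblasts is not given here.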

System: HCC1143
Assay: relative JC-1 red fluorescence (viability) vs pre-drug, coculture with fibroblast (fraction); higher = more viable cancer cells
Method: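 JC-1 labelled TNBC cells cocultured 1:1 (1,500 cells each) with CellTrace Violet stained primary or stromal fibroblasts in 384-well plates in FluoroBrite medium, treated with one of 42 anticancer drugs at 0.1, 1, 10 or 100 uM. JC-1 red fluorescence (mitochondrial integrity in cancer cells only) was read by plate reader every 8 h for 72 h. Values are normalised to each well's pre-drug value. The stock of one drug was tenfold lower, so its dose labels may be too high.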

COc1cc([C@@H]2c3cc4c(cc3[C@@H](O[C@@H]3O[C@@H]5CO[C@@H](C)O[C@H]5[C@H](O)[C@H]3O)[C@H]3COC(=O)[C@H]23)OCO4)cc(OC)c1O [Etoposide]
relative JC-1 red fluorescence
Details | 8 h | 16 h | 24 h | 32 h | 40 h | 48 h | 56 h | 64 h | 72 h
10 µM, coculture fibroblast: C12385 | 0.843 | 0.768 | 0.7197 | 0.658 | 0.61 | 0.584 | 0.55 | 0.512 | 0.499
10 µM, coculture fibroblast: H6013 | 0.762 | 0.683 | 0.64 | 0.631 | 0.57 | 0.569 | 0.536 | 0.521 | 0.483
10 µM, coculture fibroblast: H6019 | 0.7921 | 0.721 | 0.662 | 0.597 | 0.562 | 0.528 | 0.488 | 0.442 | 0.415
10 µM, coculture fibroblast: H6076 | 0.8081 | 0.833 | 0.777 | 0.705 | 0.681 | 0.659 | 0.619 | 0.59 | 0.588
10 µM, coculture fibroblast: H6231 | 0.836 | 0.846 | 0.773 | 0.645 | 0.678 | 0.647 | 0.612 | 0.571 | 0.55
10 µM, coculture fibroblast: HADF | 0.756 | 0.709 | 0.693 | 0.714 | 0.614 | 0.5868 | 0.5614 | 0.533 | 0.542
10 µM, coculture fibroblast: HCFa | 0.793 | 0.724 | 0.688 | 0.669 | 0.599 | 0.581 | 0.544 | 0.513 | 0.467
10 µM, coculture fibroblast: HCPF | 0.791 | 0.7643 | 0.714 | 0.66 | 0.642 | 0.619 | 0.581 | 0.544 | 0.542
10 µM, coculture fibroblast: HHSteC | 0.852 | 0.809 | 0.79 | 0.772 | 0.723 | 0.713 | 0.674 | 0.652 | 0.593
10 µM, coculture fibroblast: HMF | 0.796 | 0.8444 | 0.7574 | 0.6412 | 0.6571 | 0.625 | 0.5799 | 0.544 | 0.515
10 µM, coculture fibroblast: HPFa | 0.897 | 0.819 | 0.78 | 0.697 | 0.659 | 0.625 | 0.5785 | 0.5421 | 0.505
10 µM, coculture fibroblast: HUF | 0.873 | 0.748 | 0.676 | 0.601 | 0.553 | 0.502 | 0.444 | 0.401 | 0.366
10 µM, coculture fibroblast: Hs5 | 0.863 | 0.878 | 0.837 | 0.792 | 0.737 | 0.712 | 0.688 | 0.652 | 0.6602
10 µM, coculture fibroblast: Hs27A | 0.7566 | 0.718 | 0.71 | 0.743 | 0.664 | 0.685 | 0.663 | 0.661 | 0.619
10 µM, coculture fibroblast: Hs343T | 0.8123 | 0.821 | 0.7613 | 0.666 | 0.649 | 0.614 | 0.5652 | 0.543 | 0.515
10 µM, coculture fibroblast: WS1 | 0.809 | 0.734 | 0.693 | 0.634 | 0.588 | 0.556 | 0.517 | 0.482 | 0.455
100 µM, coculture fibroblast: C12385 | 0.825 | 0.781 | 0.708 | 0.665 | 0.625 | 0.597 | 0.571 | 0.535 | 0.53
100 µM, coculture fibroblast: H6013 | 0.769 | 0.706 | 0.658 | 0.643 | 0.58 | 0.572 | 0.544 | 0.541 | 0.518
100 µM, coculture fibroblast: H6019 | 0.806 | 0.744 | 0.712 | 0.669 | 0.644 | 0.627 | 0.608 | 0.581 | 0.57
100 µM, coculture fibroblast: H6076 | 0.784 | 0.816 | 0.769 | 0.685 | 0.6814 | 0.654 | 0.635 | 0.617 | 0.609
100 µM, coculture fibroblast: H6231 | 0.823 | 0.792 | 0.722 | 0.63 | 0.637 | 0.608 | 0.577 | 0.545 | 0.522
100 µM, coculture fibroblast: HADF | 0.7732 | 0.7355 | 0.7014 | 0.696 | 0.584 | 0.553 | 0.525 | 0.508 | 0.497
100 µM, coculture fibroblast: HCFa | 0.792 | 0.755 | 0.717 | 0.718 | 0.644 | 0.635 | 0.602 | 0.582 | 0.571
100 µM, coculture fibroblast: HCPF | 0.825 | 0.784 | 0.7471 | 0.707 | 0.683 | 0.662 | 0.65 | 0.648 | 0.678
100 µM, coculture fibroblast: HHSteC | 0.843 | 0.798 | 0.777 | 0.753 | 0.686 | 0.665 | 0.632 | 0.624 | 0.582
100 µM, coculture fibroblast: HMF | 0.799 | 0.789 | 0.744 | 0.654 | 0.64 | 0.615 | 0.577 | 0.561 | 0.543
100 µM, coculture fibroblast: HPFa | 0.907 | 0.838 | 0.807 | 0.721 | 0.675 | 0.664 | 0.608 | 0.593 | 0.578
100 µM, coculture fibroblast: HUF | 0.882 | 0.7966 | 0.72083 | 0.637 | 0.586 | 0.562 | 0.515 | 0.479 | 0.456
100 µM, coculture fibroblast: Hs5 | 0.848 | 0.856 | 0.82 | 0.788 | 0.733 | 0.696 | 0.681 | 0.669 | 0.684
100 µM, coculture fibroblast: Hs27A | 0.718 | 0.6506 | 0.622 | 0.6676 | 0.551 | 0.569 | 0.544 | 0.537 | 0.515
100 µM, coculture fibroblast: Hs343T | 0.8035 | 0.882 | 0.818 | 0.665 | 0.679 | 0.624 | 0.561 | 0.54 | 0.505
100 µM, coculture fibroblast: WS1 | 0.8275 | 0.758 | 0.695 | 0.617 | 0.563 | 0.537 | 0.51 | 0.484 | 0.473
